From US10174348B2, “Bacteria engineered for ester production” (priority 2013, dated 2019) come the findings set out here.

For data set [1], the system named is E. coli. Briefly: Isobutyl isobutyrate degradation by bacteria. It is filed as cell-based. Conditions: for Remaining isobutyl isobutyrate / formation of isobutanol: 1 g L^−1 isobutyl isobutyrate added, 24 h, 30° C.
Data set [2] concerns E. coli. Briefly: Isobutyl acetate degradation by bacteria. It is filed as cell-based. The conditions noted are these: for Remaining isobutyl acetate / formation of isobutanol: 1 g L^−1 isobutyl acetate added, 24 h, 30° C.

`CC(C)COC(=O)C(C)C` [Isobutyl isobutyrate, isobutyl isobutyrate]: the Remaining isobutyl isobutyrate in data set [1] (AL704) is given as 98.8 ± 0.18%; in data set [1] (No cell), 99.3 ± 0.22%; in data set [1] (Strain 9), 98.5 ± 0.48%; in data set [1] (Strain 16) it was 97.5 ± 0.48%; in data set [1] (Strain 18), 98.8 ± 0.40%. The formation of isobutanol is 1.2 ± 0.18% in data set [1] (AL704); 0.7 ± 0.22% in data set [1] (No cell); 1.5 ± 0.48% in data set [1] (Strain 9); 2.5 ± 0.48% in data set [1] (Strain 16); 1.2 ± 0.40% in data set [1] (Strain 18). For the same molecule, in data set [1] (after 24 h), the “degradation of isobutyl isobutyrate by E. coli” value is given as “no degradation”.

As for `CC(=O)OCC(C)C` [isobutyl acetate], the results for the Remaining isobutyl acetate in data set [2] (JCL260), in data set [2] (No cell) and in data set [2] (Strain 4) were 99.9 ± 0.023%, 99.9 ± 0.031% and 99.8 ± 0.023%, respectively. Besides, the results for the formation of isobutanol in data set [2] (JCL260), in data set [2] (No cell) and in data set [2] (Strain 4) were 0.14 ± 0.027%, 0.12 ± 0.031% and 0.22 ± 0.023%, respectively. In addition, in data set [2] (incubated with isobutyl acetate for 24 h), the “degradation of isobutyl acetate by E. coli JCL260” value is recorded as “No degradation”.
